Data published in paper PMC4904241.
These are yes or no findings as the source states them, for the method shown. For some of these results: In cells and extracts the contact can be indirect. For some of these results: Binding can be weak; no strength is given. Tags and fused reporters may be left off the sequences shown.

Sequences of proteins named here, by UniProt entry; tags and fusion partners are left off. A change or cut given only in a name is not applied to a line headed by its entry.
UniProt Q8IXL6: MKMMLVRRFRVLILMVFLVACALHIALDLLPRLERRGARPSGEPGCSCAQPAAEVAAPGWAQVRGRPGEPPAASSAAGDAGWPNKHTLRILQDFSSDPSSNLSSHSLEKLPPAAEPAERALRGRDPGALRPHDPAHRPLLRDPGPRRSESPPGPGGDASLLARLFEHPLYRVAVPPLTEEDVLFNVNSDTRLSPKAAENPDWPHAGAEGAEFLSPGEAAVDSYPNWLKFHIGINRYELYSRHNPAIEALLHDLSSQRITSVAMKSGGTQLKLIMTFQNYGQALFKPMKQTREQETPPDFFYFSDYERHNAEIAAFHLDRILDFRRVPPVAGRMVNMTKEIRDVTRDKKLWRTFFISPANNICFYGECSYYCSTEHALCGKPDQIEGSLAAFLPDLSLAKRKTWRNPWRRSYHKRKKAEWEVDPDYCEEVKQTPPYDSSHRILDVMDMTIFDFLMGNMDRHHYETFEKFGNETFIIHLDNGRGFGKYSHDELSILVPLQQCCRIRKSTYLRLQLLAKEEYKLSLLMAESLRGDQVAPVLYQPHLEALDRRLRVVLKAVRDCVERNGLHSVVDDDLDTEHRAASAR

Columns and labels:
FAM20A WT-Flag (human) = target: T1, FAM20A WT-Flag (human) (UniProt Q96MK3); assay: co-IP; 293 cells co-transfected with FAM20A WT-Flag and FAM20C-HA; lysates after 24 hours immunoprecipitated with anti-Flag antibody, Western blot with anti-HA antibody
T1 sequence: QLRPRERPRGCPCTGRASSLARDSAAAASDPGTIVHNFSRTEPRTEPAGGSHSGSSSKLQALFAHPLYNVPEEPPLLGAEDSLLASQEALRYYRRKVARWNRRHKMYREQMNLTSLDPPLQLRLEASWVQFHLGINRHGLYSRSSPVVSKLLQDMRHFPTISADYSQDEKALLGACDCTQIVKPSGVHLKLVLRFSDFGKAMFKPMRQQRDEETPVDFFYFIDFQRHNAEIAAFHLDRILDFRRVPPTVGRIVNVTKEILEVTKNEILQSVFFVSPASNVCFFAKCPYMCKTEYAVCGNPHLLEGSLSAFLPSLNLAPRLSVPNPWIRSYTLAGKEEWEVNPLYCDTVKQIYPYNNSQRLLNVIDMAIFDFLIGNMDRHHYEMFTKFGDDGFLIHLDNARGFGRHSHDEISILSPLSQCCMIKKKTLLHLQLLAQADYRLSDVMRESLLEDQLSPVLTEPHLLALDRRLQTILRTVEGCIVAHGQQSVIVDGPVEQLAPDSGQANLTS

[1] = target: T2, GST-FAM20A fusion protein (human) (UniProt Q96MK3); assay: pull-down; GST or GST-FAM20A incubated with rhFAM20C WT- or D478A-V5/His overnight at 4 °C, glutathione-sepharose beads added, washed twice with lysis buffer, Western blot with anti-V5 antibody; both purified
T2 sequence: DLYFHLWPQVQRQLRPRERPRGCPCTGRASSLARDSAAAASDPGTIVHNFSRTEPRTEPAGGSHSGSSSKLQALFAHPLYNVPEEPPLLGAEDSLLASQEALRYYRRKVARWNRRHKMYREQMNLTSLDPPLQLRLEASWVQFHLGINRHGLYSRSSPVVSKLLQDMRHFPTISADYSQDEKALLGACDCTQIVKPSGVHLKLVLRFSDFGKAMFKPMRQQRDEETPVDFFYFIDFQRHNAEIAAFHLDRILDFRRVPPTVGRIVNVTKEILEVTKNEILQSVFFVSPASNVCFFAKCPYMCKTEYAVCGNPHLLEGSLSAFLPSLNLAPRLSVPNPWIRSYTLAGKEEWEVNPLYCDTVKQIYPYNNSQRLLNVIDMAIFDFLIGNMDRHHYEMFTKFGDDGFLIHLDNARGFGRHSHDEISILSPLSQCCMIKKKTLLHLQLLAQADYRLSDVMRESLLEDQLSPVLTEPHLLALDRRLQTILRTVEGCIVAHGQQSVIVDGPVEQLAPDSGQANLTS

FAM20C P328S-V5 (human) = FAM20C P328S-V5 (human) (UniProt Q8IXL6); assay: co-IP; 293 cells co-transfected with FAM20A WT-HA and FAM20C WT-, D478A- or P328S-V5; lysates immunoprecipitated with anti-V5 antibody, Western blot with anti-HA antibody
[2] = target: rhFAM20C WT-V5/His (human) (UniProt Q8IXL6); assay: as above

FAM20C WT-HA (from UniProt Q8IXL6)
binding (FAM20A WT-Flag (human)): binds

rhFAM20C WT-V5/His (from UniProt Q8IXL6) (enzyme)
binding [1]: no binding

B1: FAM20A WT-HA (protein, UniProt Q96MK3 34-541)
chain: QLRPRERPRGCPCTGRASSLARDSAAAASDPGTIVHNFSRTEPRTEPAGGSHSGSSSKLQALFAHPLYNVPEEPPLLGAEDSLLASQEALRYYRRKVARWNRRHKMYREQMNLTSLDPPLQLRLEASWVQFHLGINRHGLYSRSSPVVSKLLQDMRHFPTISADYSQDEKALLGACDCTQIVKPSGVHLKLVLRFSDFGKAMFKPMRQQRDEETPVDFFYFIDFQRHNAEIAAFHLDRILDFRRVPPTVGRIVNVTKEILEVTKNEILQSVFFVSPASNVCFFAKCPYMCKTEYAVCGNPHLLEGSLSAFLPSLNLAPRLSVPNPWIRSYTLAGKEEWEVNPLYCDTVKQIYPYNNSQRLLNVIDMAIFDFLIGNMDRHHYEMFTKFGDDGFLIHLDNARGFGRHSHDEISILSPLSQCCMIKKKTLLHLQLLAQADYRLSDVMRESLLEDQLSPVLTEPHLLALDRRLQTILRTVEGCIVAHGQQSVIVDGPVEQLAPDSGQANLTS
binding (FAM20C P328S-V5 (human)): binds | binding [2]: binds
